Patent US4137236A, “Amino-spiro[oxa(or thia)cycloalkane-penam]-carboxylic” (U C B, Societe Anonyme, priority 1977, dated 1979)

System: beta-lactamase TEM
Assay: Rate of hydrolysis by beta-lactamase measured as NaOH consumed per minute
Type: biochemical
Description: This method allows the dosage of the penicilloic acid resulting from the hydrolysis of the beta-lactam function by the lytic enzyme. The results of these kinetics, as given in the following Table, clearly show the superiority of compounds E and H as compared with pencillin G.

Row | SMILES | Resistance to beta-lactamase TEM as compared with penicillin G (in words)
1 | O=C(Cc1ccccc1)N[C@@H]1C(=O)N2[C@@H]1SC1(CCSCC1)[C@@H]2C(=O)O (relative stereo) [Compound E, 6-(2"-phenylacetamido)-2',3',5',6'-tetrahydro-spiro[penam-2,4'-[4H]thiopyran]-3-carboxylic acid] | very pronounced increase in resistance
2 | O=C(Cc1ccccc1)NC1C(=O)N2C1SC1(CC[S+]([O-])CC1)C2C(=O)O (centres unmarked) [Compound H, 6-(2"-phenylacetamido)-2',3',5',6'-tetrahydro-spiro[penam-2,4'-[4H]thiopyran]-3-carboxylic acid 1'-oxide] | very pronounced increase in resistance
